# Screening data, single-dose tests

The chains behind the UniProt entries cited, without tags or fusion partners.
UniProt P9WPC5, whole entry: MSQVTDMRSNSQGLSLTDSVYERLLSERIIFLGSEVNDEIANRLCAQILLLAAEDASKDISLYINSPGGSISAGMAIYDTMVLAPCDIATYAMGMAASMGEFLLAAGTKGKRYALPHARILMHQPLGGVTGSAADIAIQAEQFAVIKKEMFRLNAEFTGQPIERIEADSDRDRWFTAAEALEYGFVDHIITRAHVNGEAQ
UniProt P9WPC3, whole entry partner: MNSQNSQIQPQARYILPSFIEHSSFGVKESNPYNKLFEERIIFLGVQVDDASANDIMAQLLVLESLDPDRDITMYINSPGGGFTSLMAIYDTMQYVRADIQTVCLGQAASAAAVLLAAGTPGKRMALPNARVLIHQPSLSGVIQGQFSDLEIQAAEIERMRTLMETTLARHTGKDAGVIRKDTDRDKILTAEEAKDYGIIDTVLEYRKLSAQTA

Data taken from ChEMBL document CHEMBL3988442, “University of Dundee, Small-Polar-MMV Screening Library” (2021).

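Protease assay of ClpP1P2, read by the AMC dye that it sets free. Target: ClpP1P2, Mycobacterium tuberculosis (UniProt P9WPC5 and UniProt P9WPC3). Compounds at 50 µM. Direction is inferred from only a few compounds that gave an IC50; most scored high, so higher reads as stronger inhibition. Most other retested compounds had strongly negative values. About 69,000 compounds were tested under these conditions; 0.015% (about 10) showed 50% or more at least once.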

Results are given as percent effect. How 0% and 100% were set is not recorded. Most values in the screen are low, and negative values occur. This is an unselected part of the compounds tested.

structure | percent effect
Cc1ccc(C(C(=O)NC(C)(C)CN2CCCC2)N(C)C)cc1 (stereo not shown) | 15.61%
CNc1cncc(C2CCCN2Cc2ccn(C)n2)n1 (stereo not shown) | -29.93%
Cc1cc(C(=O)N2C[C@@H](C(=O)O)[C@H](C(C)C)C2)cs1 | 4.218%
O=C(NCCNc1cnccn1)N1CCc2ccccc2C1 | -9.57%
Cc1nc(C(C)N2Cc3ncccc3C2=O)cs1 (stereo not shown) | -19.67%
CC(NCc1ccccc1Br)c1ccc2[nH]c(=O)[nH]c2c1 (stereo not shown) | 3.948%
c1cc(CN2CCCC3(CCN(CC4CCCO4)CC3)C2)n[nH]1 (stereo not shown) | 8.814%
Cc1nnc(N2CCc3cncnc3C2)c(C#N)c1C | 2.491%
CC(C)c1nccn1C1CCCN(C(=O)c2ccc3[nH]cnc3c2)C1 (stereo not shown) | -7.718%
CCN(CC)CCN1CCO[C@H]2[C@@H](OCc3ccncc3)CC[C@@H]21 | -6.23%
Cc1cc(N2CCOC(c3ccccn3)C2)nc(N)n1 (stereo not shown) | -18.86%
CO[C@H]1C[C@@H](O)C12CCN(Cc1nc(C(F)(F)F)no1)CC2 | -14.49%
CCNC(=O)[C@@H]1C[C@@H](n2cc(CC3CCCCC3)nn2)CN1 | 14.54%
CCN1CCc2[nH]nc(C(=O)N3CCCC3C)c2C1 (stereo not shown) | 6.656%
CN1CCN(C2CCN(Cc3noc(C4CC4)n3)CC2)C1=O | -4.407%
CCn1ccc(-c2cc(C(=O)O)n3ncc(Cl)c3n2)n1 | 14.42%
CCOc1ccc2nc(NC(=O)c3c(C(=O)O)cnn3C)sc2c1 | -4.942%
CC(NC(=O)N(C)Cc1ccncc1)c1cn(-c2ccccc2)nn1 (stereo not shown) | -7.534%
COc1ccc(C(=O)Nc2c(C(=O)N(C)C)nn(C)c2C)cc1 | 6.42%
Cc1ccsc1-c1nccn1CCN(C)S(C)(=O)=O | -1.184%
CCc1cnc(NCC(CC)N2CCOCC2)nc1 (stereo not shown) | 0.0102%
Cc1cc(C)cc(OCCC(=O)N2CCCC(n3cncn3)C2)c1 (stereo not shown) | 0.6771%
O=C(NC[C@@H]1CCCO1)c1cc(Br)cnc1N1CCCCC1 | -9.04%
Cc1cnc(C(=O)N2CCCC(n3cccn3)C2)cn1 (stereo not shown) | -8.556%
CCOCC(=O)N1C[C@@H]2COC[C@]2(c2nc(C)no2)C1 | 2.851%
CN(C)S(=O)(=O)N1C[C@H](Oc2cccnc2)[C@H]2OCCC[C@H]21 | -17.6%
Cc1nnsc1CN1C[C@H]2CC[C@@H]1CN(Cc1ccccc1)C2 | -8.944%
Nc1nc2c(c(NC(=O)Nc3cccc(Cl)c3)n1)CCCC2 | 3.99%
CCN1CCC(CNCc2c[nH]nc2C(C)(C)C)C1 (stereo not shown) | 16.04%
N#Cc1ccccc1CN1CCC(CN2CCOCC2)C1 (stereo not shown) | -6.581%
COc1ccc(S(=O)(=O)NCC(c2cccn2C)N(C)C)cc1F (stereo not shown) | 0.5737%
CC(C)(C)n1ncc2c1NC(=O)CSC2c1ccc2c(c1)OCO2 (stereo not shown) | 5.897%
COc1ccc(-c2c[nH]c([C@@H]3COCCN3)n2)cc1 | -2.134%
CC(C)N(C)[C@@H]1CCN(Cc2ccco2)[C@H]1Cc1ccccc1 | 1.213%
Cn1cc(CN2CCO[C@@H]3CN(C4CCCC4)C[C@@H]3C2)cn1 | 4.51%
Cc1cc(CSC2CCCN(c3cnn(C)c3)C2=O)no1 (stereo not shown) | 0.9035%
CCC(NC(=O)Nc1ccc(OC)c(C)c1)c1ccncc1 (stereo not shown) | 2.829%
Cc1nc(CN2CCC3(CCCO3)CC2)c2ccccn12 | 7.788%
CNS(=O)(=O)Cc1cccc(CNC(=O)Nc2cn[nH]c2)c1 | -5.709%
CC(C)c1ccc(C(O)Cn2c(=O)c(C#N)cn(C3CC3)c2=O)cc1 (stereo not shown) | -2.454%
O=C(Nc1nc(-c2ccccc2)ns1)N1CCC(F)CC1 | -14.71%
Cc1nc(NS(=O)(=O)c2ccc(F)c(Br)c2)no1 | -4.8%
CCC(O)c1nc2c([nH]1)CC(C)(C)CNC2=O (stereo not shown) | 19.26%
Cn1ccnc1CN(CCO)C(=O)c1cnc2ccccc2c1 | 4.386%
CCC(C)Oc1cc(C(=O)N(c2cccnc2)C(C)C)ccn1 (stereo not shown) | -9.179%
Cc1ccc(S(=O)(=O)N[C@H](CO)C(C)C)cc1N(C)C | 6.225%
O=C1N(CC2CC2)C(c2c[nH]nc2-c2cccnc2)NC12CCCC2 (stereo not shown) | -0.8867%
O=C(C1CNCCN1C(=O)CCOc1ccccc1)N1CCOCC1 (stereo not shown) | -3.245%
CCc1nc(CNc2ccc(F)c(F)c2)no1 | -8.681%
Cc1nc(C(=O)N2CCN(S(C)(=O)=O)[C@@H]3CS(=O)(=O)C[C@@H]32)cs1 | 8.652%
CCC(=O)N1CCN(C(=O)c2ccc(OC)o2)[C@H]2CS(=O)(=O)C[C@H]21 | 1.248%
COc1ccc2[nH]cc(C(=O)N3C[C@@H](O)[C@H](N4CCCC4)C3)c2c1 | -13.33%
CSC(CNS(C)(=O)=O)c1cccc(Cl)c1 (stereo not shown) | -1.647%
CN(C)C(=O)c1n[nH]c2c1CN(Cc1ccccn1)CC2 | -15.63%
O=C(NCC(O)c1ccc(Cl)s1)c1ccoc1 (stereo not shown) | -4.816%
Cc1cccc2nc(C(=O)N3CCC4(CCC(=O)N(C)C4)CC3)c(F)n12 | -1.695%
CC(C(=O)N1CCCN(Cc2cscn2)CC1)N1CCOCC1 (stereo not shown) | -19.78%
COc1c(C(=O)NC(C)CC(=O)c2cccs2)c(C)nn1C (stereo not shown) | 0.4193%
COc1ccccc1CC(=O)N1CCC(NCc2c[nH]nc2C)CC1 | 10.2%
CCC[C@H]1CN(Cc2ccc(N(C)C)nc2)C[C@@H]1NC(=O)CSC | -7.048%
O=C(NC1CCN(c2nccs2)CC1)c1cccs1 | -5.359%
CC(C)NC(=O)CN1CCN(CC2CCOc3ccccc3C2)CC1 (stereo not shown) | -9.675%
COCCN1CC[C@]2(CN(C(=O)c3ccc[nH]3)C[C@H]2C)C1=O | -0.2174%
CCN(C)C(=O)CCN(C)Cc1cnc(C)s1 | -5.07%
Cc1cc(C)n(CC2CCCCN2CC(=O)Nc2nnc(C)s2)n1 (stereo not shown) | -3.173%
CC(C)(C)c1cnc(CN2CCCS2(=O)=O)o1 | 6.768%
CS(=O)(=O)NC[C@]12COC[C@H]1CN(C(=O)c1ncccn1)C2 | 0.1414%
Cc1cc(Br)c(O)c(-c2nc(N3CCCCC3)sc2C)c1 | -2.3%
COc1ccnc(N2CCN(C(=O)c3csc(C(C)C)n3)CC2)n1 | -9.059%
NC(=O)c1ccc(NC(=O)c2ccncc2F)cn1 | -7.226%
CC(C)(C)C(O)CCNC(=O)c1ccc(F)cc1Cl (stereo not shown) | 2.721%
O=C(c1cnn2cccnc12)N1CCCC(n2ccnc2)C1 (stereo not shown) | -23.4%
O=C(CCCN1CCCCC1)N1CCN(C(=O)c2ccc[nH]2)CC1 | 7.693%
CCCn1[nH]cc/c1=N\C(=O)CN1CCC[C@H]1CO | 10.67%
CCc1cc(C(=O)N2CCC(Nc3ccc(C)nn3)CC2)sc1C | 7.214%
Cc1nnn2c1COC(CNCc1ccncc1)C2 (stereo not shown) | -0.1647%
Cc1nc(N(C)C)nc(NCCc2c[nH]cn2)c1C | 16.02%
COc1ccc(COCC(O)CNC(=O)c2cccc(OC)c2)cc1 (stereo not shown) | -4.15%
CCN(CC1COc2ccccc2O1)C(=O)CCn1cncn1 (stereo not shown) | -22.12%
Cc1nc2cc(O)nn2c(C)c1CCC(=O)N(C)Cc1ccccc1 | 10.02%
CCN(C)c1ncnc2c1CCN(C(=O)c1cnccn1)CC2 | 6.428%
CCC(CC)c1nnc(NC(=O)N2CCCC(NC(C)=O)C2)s1 (stereo not shown) | 7.42%
Cn1c(CO)nnc1SCc1c(F)cccc1Br | -7.818%
O=C(C1CC1)N1CCCC1c1nnc2n1CCCCC2 (stereo not shown) | -21.01%
Cc1cc(C(=O)N(C)Cc2ccn[nH]2)c(NC(=O)C(C)(C)C)s1 | -7.505%
CS(=O)(=O)c1ccc(OCCCN2CCc3cncnc3C2)cc1 | -14.89%
COc1cc(C)c(C(C)Nc2ncc(C(N)=O)cc2Cl)cc1OC (stereo not shown) | 1.044%
Cc1cc(CS(=O)(=O)NCC2CCCCC2)on1 | 5.238%